# Reference: the supplement of paper PMC8728848
# The other results are listed elsewhere or left out.
# Legend:
# Test in all cases: glycan array binding signal (z-score within array); higher = stronger binding
# Details in all cases: glycan notation: IUPAC condensed, linker removed
# [1] = target: Fuc(a1-2)Gal6S(b1-3)GlcNAc
# Outline: (§1)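 Glycan array data came from 3228 arrays in the Consortium for Functional Glycomics database, and only arrays with an available protein sequence were kept. Glycan names were put into IUPAC-condensed notation, and columns mapping to the same glycan were averaged. The binding signal is a within-array Z-score, averaged across arrays of one protein sequence run at different concentrations or buffers and across linkers. A negative Z-score can be read as non-binding.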
# [2] = target: Fuc(a1-2)Gal6S(b1-3)GlcNAc6S
# Outline: as §1
# Fuc(a1-2)Gal6S(b1-4)Glc = target: Fuc(a1-2)Gal6S(b1-4)Glc
# Outline: as §1
# [3] = target: Fuc(a1-2)Gal6S(b1-4)Glc6S
# Outline: as §1
# Fuc(a1-2)[Gal(a1-3)]Gal = target: Fuc(a1-2)[Gal(a1-3)]Gal
# Outline: as §1
# [4] = target: Fuc(a1-2)[Gal(a1-3)]Gal(b1-3)GalNAc
# Outline: as §1
# [5] = target: Fuc(a1-2)[Gal(a1-3)]Gal(b1-3)GalNAc(b1-3)Gal(a1-4)Gal(b1-4)Glc
# Outline: as §1
# [6] = target: Fuc(a1-2)[Gal(a1-3)]Gal(b1-3)GlcNAc
# Outline: as §1
# [7] = target: Fuc(a1-2)[Gal(a1-3)]Gal(b1-3)GlcNAc(b1-2)Man(a1-3)[Fuc(a1-2)[Gal(a1-3)]Gal(b1-3)GlcNAc(b1-2)Man(a1-6)]Man(b1-4)GlcNAc(b1-4)GlcNAc
# Outline: as §1
# [8] = target: Fuc(a1-2)[Gal(a1-3)]Gal(b1-3)GlcNAc(b1-2)Man(a1-3)[Fuc(a1-2)[Gal(a1-3)]Gal(b1-3)GlcNAc(b1-2)Man(a1-6)]Man(b1-4)GlcNAc(b1-4)[Fuc(a1-6)]GlcNAc
# Outline: as §1
# [9] = target: Fuc(a1-2)[Gal(a1-3)]Gal(b1-3)GlcNAc(b1-3)GalNAc
# Outline: as §1
# [10] = target: Fuc(a1-2)[Gal(a1-3)]Gal(b1-3)GlcNAc(b1-6)GalNAc
# Outline: as §1
# [11] = target: Fuc(a1-2)[Gal(a1-3)]Gal(b1-4)Glc
# Outline: as §1
# [12] = target: Fuc(a1-2)[Gal(a1-3)]Gal(b1-4)GlcNAc
# Outline: as §1
# [13] = target: Fuc(a1-2)[Gal(a1-3)]Gal(b1-4)GlcNAc(b1-2)Man
# Outline: as §1
# [14] = target: Fuc(a1-2)[Gal(a1-3)]Gal(b1-4)GlcNAc(b1-2)Man(a1-3)[Fuc(a1-2)[Gal(a1-3)]Gal(b1-4)GlcNAc(b1-2)Man(a1-6)]Man(b1-4)GlcNAc(b1-4)GlcNAc
# Outline: as §1
# [15] = target: Fuc(a1-2)[Gal(a1-3)]Gal(b1-4)GlcNAc(b1-2)Man(a1-3)[Fuc(a1-2)[Gal(a1-3)]Gal(b1-4)GlcNAc(b1-2)Man(a1-6)]Man(b1-4)GlcNAc(b1-4)[Fuc(a1-6)]GlcNAc
# Outline: as §1
# [16] = target: Fuc(a1-2)[Gal(a1-3)]Gal(b1-4)GlcNAc(b1-3)GalNAc
# Outline: as §1
# [17] = target: Fuc(a1-2)[Gal(a1-3)]Gal(b1-4)GlcNAc(b1-6)GalNAc
# Outline: as §1
# [18] = target: Fuc(a1-2)[Gal(a1-3)]Gal(b1-4)[Fuc(a1-3)]Glc
# Outline: as §1
# [19] = target: Fuc(a1-2)[Gal(a1-3)]Gal(b1-4)[Fuc(a1-3)]GlcNAc
# Outline: as §1
# [20] = target: Fuc(a1-2)[Gal(a1-3)]Gal(b1-4)[Fuc(a1-3)]GlcNAc(b1-3)GalNAc
# Outline: as §1
# [21] = target: Fuc(a1-2)[Gal(a1-4)]Gal(b1-4)GlcNAc
# Outline: as §1
# [22] = target: Fuc(a1-2)[GalNAc(a1-3)]Gal
# Outline: as §1
# [23] = target: Fuc(a1-2)[GalNAc(a1-3)]Gal(b1-3)GalNAc(a1-3)[Fuc(a1-2)]Gal(b1-4)GlcNAc
# Outline: as §1
# [24] = target: Fuc(a1-2)[GalNAc(a1-3)]Gal(b1-3)GalNAc(b1-3)Gal(a1-4)Gal(b1-4)Glc
# Outline: as §1
# [25] = target: Fuc(a1-2)[GalNAc(a1-3)]Gal(b1-3)GlcNAc
# Outline: as §1
# [26] = target: Fuc(a1-2)[GalNAc(a1-3)]Gal(b1-3)GlcNAc(b1-2)Man(a1-3)[Fuc(a1-2)[GalNAc(a1-3)]Gal(b1-3)GlcNAc(b1-2)Man(a1-6)]Man(b1-4)GlcNAc(b1-4)GlcNAc
# Outline: as §1
# [27] = target: Fuc(a1-2)[GalNAc(a1-3)]Gal(b1-3)GlcNAc(b1-2)Man(a1-3)[Fuc(a1-2)[GalNAc(a1-3)]Gal(b1-3)GlcNAc(b1-2)Man(a1-6)]Man(b1-4)GlcNAc(b1-4)[Fuc(a1-6)]GlcNAc
# Outline: as §1
# [28] = target: Fuc(a1-2)[GalNAc(a1-3)]Gal(b1-3)GlcNAc(b1-3)GalNAc
# Outline: as §1
# [29] = target: Fuc(a1-2)[GalNAc(a1-3)]Gal(b1-3)GlcNAc(b1-6)GalNAc
# Outline: as §1
# [30] = target: Fuc(a1-2)[GalNAc(a1-3)]Gal(b1-4)Glc
# Outline: as §1
# [31] = target: Fuc(a1-2)[GalNAc(a1-3)]Gal(b1-4)GlcNAc
# Outline: as §1
# [32] = target: Fuc(a1-2)[GalNAc(a1-3)]Gal(b1-4)GlcNAc(b1-2)Man
# Outline: as §1
# [33] = target: Fuc(a1-2)[GalNAc(a1-3)]Gal(b1-4)GlcNAc(b1-2)Man(a1-3)[Fuc(a1-2)[GalNAc(a1-3)]Gal(b1-4)GlcNAc(b1-2)Man(a1-6)]Man(b1-4)GlcNAc(b1-4)GlcNAc
# Outline: as §1
# [34] = target: Fuc(a1-2)[GalNAc(a1-3)]Gal(b1-4)GlcNAc(b1-2)Man(a1-3)[Fuc(a1-2)[GalNAc(a1-3)]Gal(b1-4)GlcNAc(b1-2)Man(a1-6)]Man(b1-4)GlcNAc(b1-4)[Fuc(a1-6)]GlcNAc
# Outline: as §1
# [35] = target: Fuc(a1-2)[GalNAc(a1-3)]Gal(b1-4)GlcNAc(b1-3)Gal(b1-4)GlcNAc
# Outline: as §1
# [36] = target: Fuc(a1-2)[GalNAc(a1-3)]Gal(b1-4)GlcNAc(b1-3)Gal(b1-4)GlcNAc(b1-3)Gal(b1-4)GlcNAc
# Outline: as §1
# [37] = target: Fuc(a1-2)[GalNAc(a1-3)]Gal(b1-4)GlcNAc(b1-3)GalNAc
# Outline: as §1
# [38] = target: Fuc(a1-2)[GalNAc(a1-3)]Gal(b1-4)GlcNAc(b1-3)[Fuc(a1-2)[GalNAc(a1-3)]Gal(b1-4)GlcNAc(b1-6)]GalNAc
# Outline: as §1
# [39] = target: Fuc(a1-2)[GalNAc(a1-3)]Gal(b1-4)GlcNAc(b1-6)GalNAc
# Outline: as §1
# [40] = target: Fuc(a1-2)[GalNAc(a1-3)]Gal(b1-4)[Fuc(a1-3)]GlcNAc
# Outline: as §1
# [41] = target: Fuc(a1-2)[GalNAc(a1-3)]Gal(b1-4)[Fuc(a1-3)]GlcNAc(b1-3)GalNAc
# Outline: as §1
# [42] = target: Fuc(a1-2)[GalNAc(a1-4)]Gal(b1-4)GlcNAc
# Outline: as §1
# [43] = target: Fuc(a1-2)[GalNAc(b1-3)]Gal
# Outline: as §1
binder,measurement,setting,value
"SspB A3vp1 (Streptococcus gordonii), Q54186 (protein) MTNEADYQAKLAAYQTELARVQKANADAKATYEKAVEDNKAKNAAIKAENEEIKQRNAVAKTDYEAKLAKYEADLAKYKKEFAAYTAALAEAESKKKQDGYLSEPRSQSLNFKSEPNAIRTIDSSVHQYGQQELDALVKSWGISPTNPDRKKSRAYSYFNAINSNNTYAKLVLEKDKPVDVTYTGLKNSSFNGKKISKVVYTYTLKETGFNDGTKMTMFASSDPTVTAWYNDYFTSTNINVKVKFYDEEGQLMNLTGGLVNFSSLNRGNGSGAIDKDAIESVRNFNGRYIPISGSSIKIHENNSAYADSSNAEKSLGARWNTSEWDTTSSPNNWYGAIVGEITQSEISFNMASSKSGNIWFAFNSNINAIGVPTKPVAPTAPTQPMYETEKPLEPAPVAPSYENEPTPPVKTPDQPEPSKPAAALEHHHHHH",glycan array binding signal (z-score),[1],-1.35
same,glycan array binding signal (z-score),[2],0.671
same,glycan array binding signal (z-score),Fuc(a1-2)Gal6S(b1-4)Glc,0.055
same,glycan array binding signal (z-score),[3],0.237
same,glycan array binding signal (z-score),Fuc(a1-2)[Gal(a1-3)]Gal,-0.683
same,glycan array binding signal (z-score),[4],-0.89
same,glycan array binding signal (z-score),[5],-0.908
same,glycan array binding signal (z-score),[6],0.206
same,glycan array binding signal (z-score),[7],0.73
same,glycan array binding signal (z-score),[8],0.631
same,glycan array binding signal (z-score),[9],0.099
same,glycan array binding signal (z-score),[10],-0.454
same,glycan array binding signal (z-score),[11],-0.404
same,glycan array binding signal (z-score),[12],-0.404
same,glycan array binding signal (z-score),[13],-1.01
same,glycan array binding signal (z-score),[14],0.492
same,glycan array binding signal (z-score),[15],-0.236
same,glycan array binding signal (z-score),[16],0.304
same,glycan array binding signal (z-score),[17],-0.435
same,glycan array binding signal (z-score),[18],-1.28
same,glycan array binding signal (z-score),[19],0.179
same,glycan array binding signal (z-score),[20],2.42
same,glycan array binding signal (z-score),[21],0.025
same,glycan array binding signal (z-score),[22],-0.591
same,glycan array binding signal (z-score),[23],0.239
same,glycan array binding signal (z-score),[24],-0.45
same,glycan array binding signal (z-score),[25],-0.775
same,glycan array binding signal (z-score),[26],0.151
same,glycan array binding signal (z-score),[27],-0.126
same,glycan array binding signal (z-score),[28],-0.377
same,glycan array binding signal (z-score),[29],2.01
same,glycan array binding signal (z-score),[30],-0.516
same,glycan array binding signal (z-score),[31],-0.651
same,glycan array binding signal (z-score),[32],-0.427
same,glycan array binding signal (z-score),[33],-0.186
same,glycan array binding signal (z-score),[34],0.127
same,glycan array binding signal (z-score),[35],-0.217
same,glycan array binding signal (z-score),[36],-0.093
same,glycan array binding signal (z-score),[37],-0.018
same,glycan array binding signal (z-score),[38],-0.489
same,glycan array binding signal (z-score),[39],-0.387
same,glycan array binding signal (z-score),[40],1.22
same,glycan array binding signal (z-score),[41],3.5
same,glycan array binding signal (z-score),[42],0.22
same,glycan array binding signal (z-score),[43],-1.11

# Retrieved one by one from the entries so far, three records:
binder,measurement,setting,value
"SspB A3vp1 (Streptococcus gordonii), Q54186 (protein) MTNEADYQAKLAAYQTELARVQKANADAKATYEKAVEDNKAKNAAIKAENEEIKQRNAVAKTDYEAKLAKYEADLAKYKKEFAAYTAALAEAESKKKQDGYLSEPRSQSLNFKSEPNAIRTIDSSVHQYGQQELDALVKSWGISPTNPDRKKSRAYSYFNAINSNNTYAKLVLEKDKPVDVTYTGLKNSSFNGKKISKVVYTYTLKETGFNDGTKMTMFASSDPTVTAWYNDYFTSTNINVKVKFYDEEGQLMNLTGGLVNFSSLNRGNGSGAIDKDAIESVRNFNGRYIPISGSSIKIHENNSAYADSSNAEKSLGARWNTSEWDTTSSPNNWYGAIVGEITQSEISFNMASSKSGNIWFAFNSNINAIGVPTKPVAPTAPTQPMYETEKPLEPAPVAPSYENEPTPPVKTPDQPEPSKPAAALEHHHHHH",glycan array binding signal (z-score),[10],-0.454
same,glycan array binding signal (z-score),[8],0.631
same,glycan array binding signal (z-score),[43],-1.11
